Reference: US20080207645A1, “Pyridothienopyrimidine Derivatives” (priority 2004, published 2008)
Some results were stated once for a whole list of compounds, not compound by compound.

Test system: PDE4
Experiment: PDE4 Assay Procedure ([3H]-cAMP SPA)
Type: biochemical
Method: Compounds to be tested were resuspended in DMSO at a stock concentration of 1 mM. […] These dilutions were done in 96-well plates. In some cases, plates containing diluted compounds were frozen before being assayed. In these cases, the plates were thawed at room temperature and stirred for 15 minutes.
Ten microliters of the diluted compounds were poured into a “low binding” assay plate. […] The reaction was initiated by adding ten microliters of a solution containing PDE4. The plate was then incubated under stirring for 1 hour at room temperature. After incubation the reaction was stopped with 50 microlitres of SPA beads, and the reaction was allowed to incubate for another 20 minutes at room temperature before measuring radioactivity using standard instrumentation.
The reaction mixture was prepared by adding 90 ml of H2O to 10 ml of 10× assay buffer (500 mM Tris pH 7.5, 83 mM MgCl2, 17 mM EGTA), and 40 microlitres 1 μCi/μL [3H]-cAMP. SPA beads solution was prepared by adding 500 mg to […] H2O for a final concentration of 20 mg/ml beads and 18 mM zinc sulphate.

Compound	activity as inhibitors of phosphodiesterase 4
CCCCCNc1ncnc2c1sc1nc(N3CCCC3)c3c(c12)CC(C)(C)OC3 [Example 35, 2,2-Dimethyl-5-pyrrolidin-1-yl-N-pentyl-1,4-dihydro-2H-pyrano[4″,3″:4′,5′]pyrido[3′,2′:4,5]thieno[3,2-d]pyrimidin-8-amine]	showing activity as inhibitors of phosphodiesterase 4
COc1ccc(CCNc2ncnc3c2sc2nc(N4CCOCC4)c4c(c23)CC(C)(C)OC4)cc1OC [Example 51, N-[2-(3,4-Dimethoxyphenyl)ethyl]-2,2-dimethyl-5-morpholin-4-yl-1,4-dihydro-2H-pyrano[4″,3″:4′,5′]pyrido[3′,2′:4,5]thieno[3,2-d]pyrimidin-8-amine]	showing activity as inhibitors of phosphodiesterase 4
CC1(C)Cc2c(c(N3CCOCC3)nc3sc4c(NCCCO)ncnc4c23)CO1 [Example 16, 2,2-Dimethyl-5-morpholin-4-yl-N-(3-hydroxypropyl)-1,4-dihydro-2H-pyrano[4″,3″:4′,5′]pyrido[3′,2′:4,5]thieno[3,2-d]pyrimidin-8-amine]	showing activity as inhibitors of phosphodiesterase 4
CC(C)c1nc2sc3c(NCc4cccnc4)ncnc3c2c2c1COC(C)(C)C2 [Example 48, 2,2-Dimethyl-5-isopropyl-N-(pyridin-3-ylmethyl)-1,4-dihydro-2H-pyrano[4″,3″:4′,5′]pyrido[3′,2′:4,5]thieno[3,2-d]pyrimidin-8-amine]	showing activity as inhibitors of phosphodiesterase 4
2,2-Dimethyl-5-pyrrolidin-1-yl-N-phenetyl-1,4-dihydro-2H-pyrano[4″,3″:4′,5′]pyrido[3′,2′:4,5]thieno[3,2-d]pyrimidin-8-amine [Example 29]	showing activity as inhibitors of phosphodiesterase 4
Cc1nc2sc3c(NCc4cccnc4)ncnc3c2c2c1COC(C)(C)C2 [Example 44, 2,2-Dimethyl-5-methyl-N-(pyridin-3-ylmethyl)-1,4-dihydro-2H-pyrano[4″,3″:4′,5′]pyrido[3′,2′:4,5]thieno[3,2-d]pyrimidin-8-amine]	showing activity as inhibitors of phosphodiesterase 4
CN(Cc1ccccc1)c1ncnc2c1sc1nc(N3CCOCC3)c3c(c12)CC(C)(C)OC3 [Example 25, 2,2-Dimethyl-5-morpholin-4-yl-N-benzyl-N-methyl-1,4-dihydro-2H-pyrano[4″,3″:4′,5′]pyrido[3′,2′:4,5]thieno[3,2-d]pyrimidin-8-amine]	showing activity as inhibitors of phosphodiesterase 4
CC1(C)Cc2c(c(N3CCOCC3)nc3sc4c(NC5CCCCC5)ncnc4c23)CO1 [Example 9, 2,2-Dimethyl-5-morpholin-4-yl-N-cyclohexyl-1,4-dihydro-2H-pyrano[4″,3″:4′,5′]pyrido[3′,2′:4,5]thieno[3,2-d]pyrimidin-8-amine]	showing activity as inhibitors of phosphodiesterase 4
CC1(C)Cc2c(c(N3CCCC3)nc3sc4c(N5CCOCC5)ncnc4c23)CO1 [Example 26, 2,2-Dimethyl-5-pyrrolidin-1-yl-8-morpholin-4-yl-1,4-dihydro-2H-pyrano[4″,3″:4′,5′]pyrido[3′,2′:4,5]thieno[3,2-d]pyrimidine]	showing activity as inhibitors of phosphodiesterase 4
